Test [1] has as its target T1, human 6His2Flag-Cdc45 (human) (UniProt O75419).
T1 sequence: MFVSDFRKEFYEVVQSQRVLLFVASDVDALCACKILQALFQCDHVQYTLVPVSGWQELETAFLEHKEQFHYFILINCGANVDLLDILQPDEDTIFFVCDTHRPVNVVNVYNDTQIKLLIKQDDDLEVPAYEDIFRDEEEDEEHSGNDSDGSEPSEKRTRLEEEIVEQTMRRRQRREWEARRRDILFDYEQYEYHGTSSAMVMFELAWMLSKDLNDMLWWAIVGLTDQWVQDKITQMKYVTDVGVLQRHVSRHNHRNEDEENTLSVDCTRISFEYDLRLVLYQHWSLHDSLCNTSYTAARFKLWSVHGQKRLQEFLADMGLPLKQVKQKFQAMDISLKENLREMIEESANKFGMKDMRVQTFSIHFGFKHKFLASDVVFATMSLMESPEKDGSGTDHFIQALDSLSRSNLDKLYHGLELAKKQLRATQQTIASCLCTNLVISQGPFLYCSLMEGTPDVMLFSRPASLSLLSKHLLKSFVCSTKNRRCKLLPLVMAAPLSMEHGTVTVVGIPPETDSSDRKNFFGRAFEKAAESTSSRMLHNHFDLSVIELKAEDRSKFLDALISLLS
Nature of the test: co-purification of co-expressed subunits (glutathione beads, Q-Sepharose, anti-Flag beads, glycerol gradient); 11 human CMG subunits co-expressed in High Five cells; captured by GST-Sld5 on glutathione beads (0.42 M potassium acetate), Q-Sepharose, then by 6His2Flag-Cdc45 on anti-Flag M2 beads, PreScission cleavage, 15-40% glycerol gradient; subunits checked by silver staining and immunoblotting.

Sequences of proteins named here, by UniProt entry; tags and fusion partners are left off.
UniProt Q9BRT9: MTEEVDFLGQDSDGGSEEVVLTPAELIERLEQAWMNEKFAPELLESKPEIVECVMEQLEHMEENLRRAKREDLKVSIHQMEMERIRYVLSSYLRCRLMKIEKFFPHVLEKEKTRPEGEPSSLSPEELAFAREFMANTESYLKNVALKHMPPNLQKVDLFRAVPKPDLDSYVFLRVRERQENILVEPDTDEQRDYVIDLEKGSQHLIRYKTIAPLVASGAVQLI
UniProt P49736: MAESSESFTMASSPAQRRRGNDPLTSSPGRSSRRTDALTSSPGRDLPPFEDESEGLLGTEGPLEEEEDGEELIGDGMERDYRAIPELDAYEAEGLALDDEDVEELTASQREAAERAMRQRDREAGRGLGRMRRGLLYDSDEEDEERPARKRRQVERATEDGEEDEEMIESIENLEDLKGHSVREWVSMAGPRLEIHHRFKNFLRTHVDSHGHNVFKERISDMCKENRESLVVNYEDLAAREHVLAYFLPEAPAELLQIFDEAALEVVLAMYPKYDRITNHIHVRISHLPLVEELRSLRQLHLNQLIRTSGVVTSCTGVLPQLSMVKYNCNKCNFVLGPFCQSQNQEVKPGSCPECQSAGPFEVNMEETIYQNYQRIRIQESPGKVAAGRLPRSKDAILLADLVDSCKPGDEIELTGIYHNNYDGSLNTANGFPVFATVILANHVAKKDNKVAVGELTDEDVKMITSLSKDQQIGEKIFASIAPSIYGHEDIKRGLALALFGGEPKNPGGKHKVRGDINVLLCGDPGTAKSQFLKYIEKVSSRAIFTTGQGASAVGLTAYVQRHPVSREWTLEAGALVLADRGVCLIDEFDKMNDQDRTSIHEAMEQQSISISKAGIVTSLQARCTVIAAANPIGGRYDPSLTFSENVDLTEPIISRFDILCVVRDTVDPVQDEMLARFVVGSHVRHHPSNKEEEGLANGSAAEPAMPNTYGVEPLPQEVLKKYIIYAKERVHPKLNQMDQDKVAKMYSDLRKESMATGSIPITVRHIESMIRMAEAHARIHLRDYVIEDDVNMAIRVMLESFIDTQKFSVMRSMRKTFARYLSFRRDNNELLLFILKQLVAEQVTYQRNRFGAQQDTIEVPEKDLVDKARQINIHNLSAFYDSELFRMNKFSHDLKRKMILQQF

The target of another test is human GST-Sld5 (human) (UniProt Q9BRT9). The description is as above.
In test [2] the target is Flag-Mcm2 (human, ectopic) (human) (UniProt P49736). Nature of the test: condition: only with 15 µM CA1 on the immunoprecipitated complexes for 30 min; co-IP; as a4, but the beads with the immunoprecipitated complexes were incubated with 15 µM coumermycin-A1 (CA1) for 30 min, washed, immunoblotted.

The source of these data is publication PMC10441460, “Identification of Selective ATP-Competitive CMG Helicase Inhibitors for Cancer Intervention that Disrupt CMG-Replisome Function” (Research Square, 2023).

No constants are given. Whether binding was seen depends on the method and setting. For some assays here: In cells and extracts the contact can be indirect. Some entries that bind do so weakly or less than the wild type. For some assays here: Sequences can lack the tags named with a protein.

B1: human Mcm3 (recombinant hCMG subunit) (protein, UniProt P25205 1-808)
chain: MAGTVVLDDVELREAQRDYLDFLDDEEDQGIYQSKVRELISDNQYRLIVNVNDLRRKNEKRANRLLNNAFEELVAFQRALKDFVASIDATYAKQYEEFYVGLEGSFGSKHVSPRTLTSCFLSCVVCVEGIVTKCSLVRPKVVRSVHYCPATKKTIERRYSDLTTLVAFPSSSVYPTKDEENNPLETEYGLSVYKDHQTITIQEMPEKAPAGQLPRSVDVILDDDLVDKAKPGDRVQVVGTYRCLPGKKGGYTSGTFRTVLIACNVKQMSKDAQPSFSAEDIAKIKKFSKTRSKDIFDQLAKSLAPSIHGHDYVKKAILCLLLGGVERDLENGSHIRGDINILLIGDPSVAKSQLLRYVLCTAPRAIPTTGRGSSGVGLTAAVTTDQETGERRLEAGAMVLADRGVVCIDEFDKMSDMDRTAIHEVMEQGRVTIAKAGIHARLNARCSVLAAANPVYGRYDQYKTPMENIGLQDSLLSRFDLLFIMLDQMDPEQDREISDHVLRMHRYRAPGEQDGDAMPLGSAVDILATDDPNFSQEDQQDTQIYEKHDNLLHGTKKKKEKMVSAAFMKKYIHVAKIIKPVLTQESATYIAEEYSRLRSQDSMSSDTARTSPVTARTLETLIRLATAHAKARMSKTVDLQDAEEAVELVQYAYFKKVLEKEKKRKKRSEDESETEDEEEKSQEDQEQKRKRRKTRQPDAKDGDSYDPYDFSDTEEEMPQVHTPKTADSQETKESQKVELSESRLKAFKVALLDVFREAHAQSIGMNRLTESINRDSEEPFSSVEIQAALSKMQDDNQVMVSEGIIFLI
In the case of B1, the binding result (in test [1]; in the test with human GST-Sld5 (human)) was “binds” in each case.

B2: human Mcm6 (recombinant hCMG subunit) (protein, UniProt Q14566 1-821)
chain: MDLAAAAEPGAGSQHLEVRDEVAEKCQKLFLDFLEEFQSSDGEIKYLQLAEELIRPERNTLVVSFVDLEQFNQQLSTTIQEEFYRVYPYLCRALKTFVKDRKEIPLAKDFYVAFQDLPTRHKIRELTSSRIGLLTRISGQVVRTHPVHPELVSGTFLCLDCQTVIRDVEQQFKYTQPNICRNPVCANRRRFLLDTNKSRFVDFQKVRIQETQAELPRGSIPRSLEVILRAEAVESAQAGDKCDFTGTLIVVPDVSKLSTPGARAETNSRVSGVDGYETEGIRGLRALGVRDLSYRLVFLACCVAPTNPRFGGKELRDEEQTAESIKNQMTVKEWEKVFEMSQDKNLYHNLCTSLFPTIHGNDEVKRGVLLMLFGGVPKTTGEGTSLRGDINVCIVGDPSTAKSQFLKHVEEFSPRAVYTSGKASSAAGLTAAVVRDEESHEFVIEAGALMLADNGVCCIDEFDKMDVRDQVAIHEAMEQQTISITKAGVKATLNARTSILAAANPISGHYDRSKSLKQNINLSAPIMSRFDLFFILVDECNEVTDYAIARRIVDLHSRIEESIDRVYSLDDIRRYLLFARQFKPKISKESEDFIVEQYKHLRQRDGSGVTKSSWRITVRQLESMIRLSEAMARMHCCDEVQPKHVKEAFRLLNKSIIRVETPDVNLDQEEEIQMEVDEGAGGINGHADSPAPVNGINGYNEDINQESAPKASLRLGFSEYCRISNLIVLHLRKVEEEEDESALKRSELVNWYLKEIESEIDSEEELINKKRIIEKVIHRLTHYDHVLIELTQAGLKGSTEGSESYEEDPYLVVNPNYLLED
For the molecule B2, the binding result (in test [1]; with human GST-Sld5 (human)) was “binds” in each case.

B3: human 6His2Flag-Cdc45 (protein, UniProt O75419 1-566)
chain: MFVSDFRKEFYEVVQSQRVLLFVASDVDALCACKILQALFQCDHVQYTLVPVSGWQELETAFLEHKEQFHYFILINCGANVDLLDILQPDEDTIFFVCDTHRPVNVVNVYNDTQIKLLIKQDDDLEVPAYEDIFRDEEEDEEHSGNDSDGSEPSEKRTRLEEEIVEQTMRRRQRREWEARRRDILFDYEQYEYHGTSSAMVMFELAWMLSKDLNDMLWWAIVGLTDQWVQDKITQMKYVTDVGVLQRHVSRHNHRNEDEENTLSVDCTRISFEYDLRLVLYQHWSLHDSLCNTSYTAARFKLWSVHGQKRLQEFLADMGLPLKQVKQKFQAMDISLKENLREMIEESANKFGMKDMRVQTFSIHFGFKHKFLASDVVFATMSLMESPEKDGSGTDHFIQALDSLSRSNLDKLYHGLELAKKQLRATQQTIASCLCTNLVISQGPFLYCSLMEGTPDVMLFSRPASLSLLSKHLLKSFVCSTKNRRCKLLPLVMAAPLSMEHGTVTVVGIPPETDSSDRKNFFGRAFEKAAESTSSRMLHNHFDLSVIELKAEDRSKFLDALISLLS
With B3, the binding entry in the test with human GST-Sld5 (human) is recorded as “binds”.

B4: human Psf3 (recombinant hCMG subunit) (protein, UniProt Q9BRX5 1-216)
chain: MSEAYFRVESGALGPEENFLSLDDILMSHEKLPVRTETAMPRLGAFFLERSAGAETDNAVPQGSKLELPLWLAKGLFDNKRRILSVELPKIYQEGWRTVFSADPNVVDLHKMGPHFYGFGSQLLHFDSPENADISQSLLQTFIGRFRRIMDSSQNAYNEDTSALVARLDEMERGLFQTGQKGLNDFQCWEKGQASQITASNLVQNYKKRKFTDMED
B4: the binding result (in test [1]; with human GST-Sld5 (human)) was “binds” in each case.

B5: human Psf2 (recombinant hCMG subunit) (protein, UniProt Q9Y248 1-185)
chain: MDAAEVEFLAEKELVTIIPNFSLDKIYLIGGDLGPFNPGLPVEVPLWLAINLKQRQKCRLLPPEWMDVEKLEKMRDHERKEETFTPMPSPYYMELTKLLLNHASDNIPKADEIRTLVKDMWDTRIAKLRVSADSFVRQQEAHAKLDNLTLMEINTSGTFLTQALNHMYKLRTNLQPLESTQSQDF
With B5, the binding entry (in test [1]; in the test with human GST-Sld5 (human)) was “binds” throughout.

B6: human Mcm5 (recombinant hCMG subunit) (protein, UniProt P33992 1-734)
chain: MSGFDDPGIFYSDSFGGDAQADEGQARKSQLQRRFKEFLRQYRVGTDRTGFTFKYRDELKRHYNLGEYWIEVEMEDLASFDEDLADYLYKQPAEHLQLLEEAAKEVADEVTRPRPSGEEVLQDIQVMLKSDASPSSIRSLKSDMMSHLVKIPGIIIAASAVRAKATRISIQCRSCRNTLTNIAMRPGLEGYALPRKCNTDQAGRPKCPLDPYFIMPDKCKCVDFQTLKLQELPDAVPHGEMPRHMQLYCDRYLCDKVVPGNRVTIMGIYSIKKFGLTTSRGRDRVGVGIRSSYIRVLGIQVDTDGSGRSFAGAVSPQEEEEFRRLAALPNVYEVISKSIAPSIFGGTDMKKAIACLLFGGSRKRLPDGLTRRGDINLLMLGDPGTAKSQLLKFVEKCSPIGVYTSGKGSSAAGLTASVMRDPSSRNFIMEGGAMVLADGGVVCIDEFDKMREDDRVAIHEAMEQQTISIAKAGITTTLNSRCSVLAAANSVFGRWDETKGEDNIDFMPTILSRFDMIFIVKDEHNEERDVMLAKHVITLHVSALTQTQAVEGEIDLAKLKKFIAYCRVKCGPRLSAEAAEKLKNRYIIMRSGARQHERDSDRRSSIPITVRQLEAIVRIAEALSKMKLQPFATEADVEEALRLFQVSTLDAALSGTLSGVEGFTSQEDQEMLSRIEKQLKRRFAIGSQVSEHSIIKDFTKQKYPEHAIHKVLQLMLRRGEIQHRMQRKVLYRLK
As for B6, the binding entry (in test [1]; in the test with human GST-Sld5 (human)) was “binds” in each case.

B7: human Psf1 (recombinant hCMG subunit) (protein, UniProt Q14691 1-196)
chain: MFCEKAMELIRELHRAPEGQLPAFNEDGLRQVLEEMKALYEQNQSDVNEAKSGGRSDLIPTIKFRHCSLLRNRRCTVAYLYDRLLRIRALRWEYGSVLPNALRFHMAAEEMEWFNNYKRSLATYMRSLGGDEGLDITQDMKPPKSLYIEVRCLKDYGEFEVDDGTSVLLKKNSQHFLPRWKCEQLIRQGVLEHILS
In the case of B7, the binding entry (in test [1]; in the test with human GST-Sld5 (human)) was “binds” in each case.

B8: Ctf4 (endogenous) (protein, UniProt O75717 1-1129)
chain: MPATRKPMRYGHTEGHTEVCFDDSGSFIVTCGSDGDVRIWEDLDDDDPKFINVGEKAYSCALKSGKLVTAVSNNTIQVHTFPEGVPDGILTRFTTNANHVVFNGDGTKIAAGSSDFLVKIVDVMDSSQQKTFRGHDAPVLSLSFDPKDIFLASASCDGSVRVWQISDQTCAISWPLLQKCNDVINAKSICRLAWQPKSGKLLAIPVEKSVKLYRRESWSHQFDLSDNFISQTLNIVTWSPCGQYLAAGSINGLIIVWNVETKDCMERVKHEKGYAICGLAWHPTCGRISYTDAEGNLGLLENVCDPSGKTSSSKVSSRVEKDYNDLFDGDDMSNAGDFLNDNAVEIPSFSKGIINDDEDDEDLMMASGRPRQRSHILEDDENSVDISMLKTGSSLLKEEEEDGQEGSIHNLPLVTSQRPFYDGPMPTPRQKPFQSGSTPLHLTHRFMVWNSIGIIRCYNDEQDNAIDVEFHDTSIHHATHLSNTLNYTIADLSHEAILLACESTDELASKLHCLHFSSWDSSKEWIIDLPQNEDIEAICLGQGWAAAATSALLLRLFTIGGVQKEVFSLAGPVVSMAGHGEQLFIVYHRGTGFDGDQCLGVQLLELGKKKKQILHGDPLPLTRKSYLAWIGFSAEGTPCYVDSEGIVRMLNRGLGNTWTPICNTREHCKGKSDHYWVVGIHENPQQLRCIPCKGSRFPPTLPRPAVAILSFKLPYCQIATEKGQMEEQFWRSVIFHNHLDYLAKNGYEYEESTKNQATKEQQELLMKMLALSCKLEREFRCVELADLMTQNAVNLAIKYASRSRKLILAQKLSELAVEKAAELTATQVEEEEEEEDFRKKLNAGYSNTATEWSQPRFRNQVEEDAEDSGEADDEEKPEIHKPGQNSFSKSTNSSDVSAKSGAVTFSSQGRVNPFKVSASSKEPAMSMNSARSTNILDNMGKSSKKSTALSRTTNNEKSPIIKPLIPKPKPKQASAASYFQKRNSQTNKTEEVKEENLKNVLSETPAICPPQNTENQRPKTGFQMWLEENRSNILSDNPDFSDEADIIKEGMIRFRVLSTEERKVWANKAKGETASEGTEAKKRKRVVDESDETENQEEKAKENLNLSKKQKPLDFSTNQKLSAFAFKQE
Regarding B8, the binding result in test [2] is “no binding”.
